Measured values taken from the supplement of paper PMC12009310.
Counter-ions that a name gives are not always drawn. ± gives the standard deviation of the averaged measurements. The list shows a part of the results. Plates or batches differ in their baseline, so values are only roughly comparable.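 The cells are a mouse kidney inner medullary collecting duct line, silenced either for the ciliary gene Rpgrip1l or with a non-targeting control siRNA.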

These compounds were tested on mIMCD3 (assay: robust z score of cell number vs plate controls; higher = more cells (less cytotoxic)). Details: 10 µM; 48 h; siRNA: siRpgrip1l.

| SMILES | robust z score of cell number |
| --- | --- |
| CO[C@@H]1[C@H](O)[C@@H](CO)O[C@H]1n1cnc2c(NC3CCCCC3)ncnc21 | -1.78 ± 4.9 |
| OCc1cc(C(O)CNCCCCCCOCCCCc2ccccc2)ccc1O (centres undefined) [Salmeterol] | -52.4 ± 54 |
| COC(=O)Nc1ccc2[nH]cc(CCNC(C)=O)c2c1 | -0.859 ± 1.9 |
| COC(=O)C[C@](O)(CCCC(C)(C)O)C(=O)O[C@@H]1C(OC)=C[C@]23CCCN2CCc2cc4c(cc2[C@H]13)OCO4 [Homoharringtonine] | -61.7 ± 53 |
| CCCOc1ccccc1-c1nc2[nH]nnc2c(=O)[nH]1 [Zaprinast] | -4.45 ± 1.1 |
| CCCCCS(=O)(=O)CCCCCCCCCCn1c(-c2ccc(O)cc2)c(C)c2cc(O)ccc21 | -40.8 ± 26 |
| O=c1c(O)c(-c2ccc(O)cc2)oc2cc(O)cc(O)c12 [Kaempferol] | -41.3 ± 56 |
| COc1cc(NC(=O)c2ccccn2)ccc1Cl | -6.53 ± 0.43 |
| CCCCC[C@H](O)/C=C/[C@H]1[C@H](O)CC(=O)[C@@H]1C/C=C\CCCC(=O)O [Prostaglandin E2] | -9.63 ± 5.3 |
| N#Cc1c(O)c2c(-c3ccc(-c4ccccc4O)cc3)csc2[nH]c1=O | -4.9 ± 3 |
| O=C(/C=C/c1c(C(=O)O)[nH]c2cc(Cl)cc(Cl)c12)Nc1ccccc1 [Gavestinel] | -5.38 ± 2.7 |
| C1CCC2(CC1)CCNCC2 [4,4-Pentamethylenepiperidine hydrochloride] | -48.3 ± 69 |
| CC(C)[C@H](CO)Nc1nc(Nc2ccc(C(=O)O)c(Cl)c2)c2ncn(C(C)C)c2n1 [Purvalanol B] | 35.8 ± 40 |
| Cn1cnnc1Sc1c([N+](=O)[O-])ncn1C | -11.8 ± 6.4 |
